Where no end group is shown, it is not given here.
Assay: general procedure: Fmoc solid-phase peptide synthesis; Fmoc-L-Valine-PEG-PS
Details: whole synthesis, scale 0.4 mmol

YKIIQQWPHYRRV
isolated yield: 31.4%

From patent US6696559B1 (The Regents of the University of California, priority 1996, dated 2004)
